In paper PMC4103484, “Functional effects of polymorphisms on glucocorticoid receptor modulation of human anxiogenic substance-P gene promoter activity in primary amygdala neurones”:
For some assays here: The comparison behind a weaker result is the experiment's own reference, which may not be listed here. For some assays here: Where a protein sequence is shown, tags need not be part of it. For some assays here: Construct, isoform or probe ends are uncertain for at least one entry. For some assays here: Where cells or extracts were used, other partners may take part. For some assays here: A negative result means that nothing was seen under these conditions.

How the values were obtained:
[1] = target: glucocorticoid receptor (GR), SH-SY5Y nuclear extract (human) (UniProt P04150); test: competition with a labelled probe; conditions: Dex-treated cells, EMSA: 20 fmol biotin probe with 2.0 uM GRα or 10 ug nuclear extract, buffer as Hay et al. 2005 with EDTA replaced by 50 uM ZnSO4, competitor 100x, 6% native gel, protein in an extract
[2] = target: T1, glucocorticoid receptor alpha (GRα) (human) (UniProt P04150); test: EMSA; conditions: significantly less than 2GR, p<0.01, n=3; EMSA: 20 fmol biotin probe with 2.0 uM GRα or 10 ug nuclear extract; buffer as Hay et al. 2005 with EDTA replaced by 50 uM ZnSO4; competitor 100x; 6% native gel; recombinant protein; residues 1-777; label: 3' biotin
T1 sequence (looked up): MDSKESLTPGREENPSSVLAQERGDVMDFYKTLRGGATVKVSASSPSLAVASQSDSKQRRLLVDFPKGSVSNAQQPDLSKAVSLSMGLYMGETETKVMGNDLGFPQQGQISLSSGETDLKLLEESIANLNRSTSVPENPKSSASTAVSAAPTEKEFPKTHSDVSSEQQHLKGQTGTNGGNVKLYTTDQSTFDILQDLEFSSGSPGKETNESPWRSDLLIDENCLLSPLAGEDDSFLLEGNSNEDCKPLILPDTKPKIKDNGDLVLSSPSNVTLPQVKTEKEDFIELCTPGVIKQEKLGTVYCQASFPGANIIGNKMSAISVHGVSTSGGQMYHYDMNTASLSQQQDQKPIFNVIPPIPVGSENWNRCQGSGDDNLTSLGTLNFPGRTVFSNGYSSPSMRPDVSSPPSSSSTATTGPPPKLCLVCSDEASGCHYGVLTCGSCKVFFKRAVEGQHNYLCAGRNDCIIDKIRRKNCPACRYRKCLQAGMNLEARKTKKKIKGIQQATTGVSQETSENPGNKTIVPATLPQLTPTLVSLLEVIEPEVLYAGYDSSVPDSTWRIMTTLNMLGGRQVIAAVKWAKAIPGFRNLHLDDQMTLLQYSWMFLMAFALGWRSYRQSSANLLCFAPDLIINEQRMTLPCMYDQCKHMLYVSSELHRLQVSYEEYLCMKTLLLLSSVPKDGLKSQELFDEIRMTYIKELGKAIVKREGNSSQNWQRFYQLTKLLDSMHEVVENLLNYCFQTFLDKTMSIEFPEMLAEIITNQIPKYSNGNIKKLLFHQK

[3] = target: glucocorticoid receptor (GR), SH-SY5Y nuclear extract (human) (UniProt P04150); test: EMSA; conditions: Dex-treated cells, reduced vs 2GR, n=3; EMSA: 20 fmol biotin probe with 2.0 uM GRα or 10 ug nuclear extract; buffer as Hay et al. 2005 with EDTA replaced by 50 uM ZnSO4; competitor 100x; 6% native gel; protein in an extract; label: 3' biotin
[4] = target: glucocorticoid receptor (GR), SH-SY5Y nuclear extract (human) (UniProt P04150); test: EMSA supershift (complex reduced by anti-GR); conditions: Dex-treated cells; EMSA: 20 fmol biotin probe with 2.0 uM GRα or 10 ug nuclear extract; buffer as Hay et al. 2005 with EDTA replaced by 50 uM ZnSO4; competitor 100x; 6% native gel; protein in an extract; label: 3' biotin (unlabelled as competitor)

Sequence: CGAGCACCCTTCACCCTCCAGGCTTAACGG (double strand) [RO (random oligonucleotide)]
- binding result ([1]; excess unlabelled vs 2GR probe, label: none (competitor)): no binding

Sequence: TTGATTTAGAAGAGGGACCGTATGGTTATAGAACGATG (double strand) [2GR-mut]
- binding result [2]: binds more weakly
- binding result [3]: binds more weakly

Sequence: TAAGTTTATGGTTACAAACTGTTCTTAAAACGAGG (double strand) [GRE-cons]
- binding result ([1]; excess unlabelled almost eliminates complex on 2GR, label: 3' biotin (unlabelled as competitor)): binds
- binding result [4]: binds
